No constants are given. Whether binding was seen depends on the method and setting. Binding seen in cells or lysates may run through a third protein. A result given as binding can be weak or reduced; the word gives no strength.
Tests used:
[1] = target: S87C SpoIVFA (Bacillus subtilis) (UniProt P26936); experiment: cross-linking; in vivo disulfide crosslinking in E. coli coexpressing BofA and SpoIVFA variants with Cys-less SpoIVFB and Pro-σK(1-127); cells treated with 1 mM Cu2+(phenanthroline)3 for 60 min at 37°C in 10 mM Tris-HCl pH 8.1; controls with DTT or Cu followed by DTT; anti-SpoIVFA or anti-MBP immunoblot
[2] = target: A88C SpoIVFA (Bacillus subtilis) (UniProt P26936); experiment: cross-linking; in vivo disulfide crosslinking in E. coli as in a1 but stringent: Cu2+(phenanthroline)3 in a 10-fold dilution series (1 mM to 0.1 µM) or at 100 µM, for 5 min at 37°C; anti-SpoIVFA immunoblot
[3] = target: A88C SpoIVFA (Bacillus subtilis) (UniProt P26936); experiment: cross-linking; in vivo disulfide crosslinking in E. coli coexpressing BofA and SpoIVFA variants with Cys-less SpoIVFB and Pro-σK(1-127); cells treated with 1 mM Cu2+(phenanthroline)3 for 60 min at 37°C in 10 mM Tris-HCl pH 8.1; controls with DTT or Cu followed by DTT; anti-SpoIVFA or anti-MBP immunoblot
[4] = target: V84C SpoIVFA (Bacillus subtilis) (UniProt P26936); experiment: cross-linking; in vivo disulfide crosslinking in E. coli as in a1 but stringent: Cu2+(phenanthroline)3 in a 10-fold dilution series (1 mM to 0.1 µM) or at 100 µM, for 5 min at 37°C; anti-SpoIVFA immunoblot
[5] = target: V84C SpoIVFA (Bacillus subtilis) (UniProt P26936); experiment: cross-linking; in vivo disulfide crosslinking in E. coli coexpressing BofA and SpoIVFA variants with Cys-less SpoIVFB and Pro-σK(1-127); cells treated with 1 mM Cu2+(phenanthroline)3 for 60 min at 37°C in 10 mM Tris-HCl pH 8.1; controls with DTT or Cu followed by DTT; anti-SpoIVFA or anti-MBP immunoblot

Amino acid sequences for entries named in this document (tags omitted). A change or cut given only in a name is not applied to a line headed by its entry.
UniProt P26936: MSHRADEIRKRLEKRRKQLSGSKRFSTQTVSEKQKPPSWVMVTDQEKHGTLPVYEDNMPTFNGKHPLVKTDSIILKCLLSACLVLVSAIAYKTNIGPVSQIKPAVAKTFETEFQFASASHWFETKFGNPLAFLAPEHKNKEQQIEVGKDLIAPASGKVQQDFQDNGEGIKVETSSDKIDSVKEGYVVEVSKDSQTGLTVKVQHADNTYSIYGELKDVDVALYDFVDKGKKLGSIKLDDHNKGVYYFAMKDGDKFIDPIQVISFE
UniProt P24282: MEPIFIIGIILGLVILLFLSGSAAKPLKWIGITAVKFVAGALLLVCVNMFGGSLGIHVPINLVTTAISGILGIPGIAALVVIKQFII

Question: “I82C MBPΔ27BofA (from UniProt P24282) (domain or fragment)” was tested. Which binding [1] did it give?
Answer: binds

Question: Which results are given for “I86C MBPΔ27BofA (from UniProt P24282) (domain or fragment)”?
Answer: binding [2]: binds; binding [3]: binds

Question: Which binding [3] does the source give for “I86C BofA (full-length) (from UniProt P24282)” here?
Answer: binds

Question: With “T65C MBPΔ27BofA (from UniProt P24282) (domain or fragment)” as the substance, how does the binding [4] read?
Answer: binds

Question: What about the binding [5] of the same substance?
Answer: binds

Question: “T65C BofA (full-length) (from UniProt P24282)” was tested. Which binding [5] did it give?
Answer: binds

Question: For “V81C MBPΔ27BofA (from UniProt P24282) (domain or fragment)”, which binding [4] is on record?
Answer: binds

Question: What about the binding [5] of the same substance?
Answer: binds

Question: For “V81C BofA (full-length) (from UniProt P24282)”, which binding [5] is on record?
Answer: binds

— paper PMC12632252
